# From PubChem BioAssay AID1259354 (Paczesny and Yang Labs, IUPUI and University of Michigan, 2018)
# Amino acid sequences for entries named in this document (tags omitted). A change or cut given only in a name is not applied to a line headed by its entry.
# UniProt Q01638: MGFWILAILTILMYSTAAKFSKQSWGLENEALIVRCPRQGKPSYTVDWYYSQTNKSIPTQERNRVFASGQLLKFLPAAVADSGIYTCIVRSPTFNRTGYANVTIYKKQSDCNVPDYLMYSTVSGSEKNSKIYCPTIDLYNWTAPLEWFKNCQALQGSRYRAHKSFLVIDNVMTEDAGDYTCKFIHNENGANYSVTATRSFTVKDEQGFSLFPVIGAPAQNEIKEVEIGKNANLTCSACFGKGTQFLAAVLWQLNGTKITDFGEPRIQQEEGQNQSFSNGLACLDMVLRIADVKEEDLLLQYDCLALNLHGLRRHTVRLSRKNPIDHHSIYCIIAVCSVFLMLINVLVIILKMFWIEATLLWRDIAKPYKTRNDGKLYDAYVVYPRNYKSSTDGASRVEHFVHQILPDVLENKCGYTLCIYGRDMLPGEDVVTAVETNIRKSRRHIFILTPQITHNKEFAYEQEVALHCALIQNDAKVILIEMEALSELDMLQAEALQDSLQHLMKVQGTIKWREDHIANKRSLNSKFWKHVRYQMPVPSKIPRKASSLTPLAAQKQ
# Out of some 78,000 compounds screened, about 1,800 (2.3%) were called active. This list was built around the results that the source calls inconclusive (neither active nor inactive); the mix of calls is not that of the screen. No stated cut-off is given here; in the data, active means inhibition above about 30%; inconclusive means mostly about 10% to 28%; inactive means weaker than that.
# Molecular target: Interleukin-1 receptor-like 1 (Homo sapiens) (UniProt Q01638)
# Assay: blocks human ST2 binding to IL-33, primary screen, biochemical, AlphaLISA (AID 1259354)
# Conditions: AlphaLISA ST2-Fc/biotin-IL-33 interaction, 1 h; at 17 µM, hits give high values
row,SMILES,inhibition
1,FC(F)(F)CCc1ccnc(NC2CCN(Cc3ccccn3)CC2)n1,inconclusive: 19%
2,N#C/C(=C\c1ccc(O)cc1)c1nc(-c2ccc(Cl)cc2)cs1,inconclusive: 20%
3,C=C(C)Cn1c(SCC(N)=O)nc2sc3c(c2c1=O)CCCC3,inconclusive: 12%
4,Cc1nc2ncccn2c1C(=O)NCCCc1nc2ccccc2n1C,inactive
5,CCOc1cccc(C2C(C(=O)OC3CCCC3)=C(C)NC3=C2C(=O)C(C(=O)OC)C(C)C3)c1 (configuration not stated),inactive
6,COc1cc(/C=C2/C(=O)NN(c3ccc(C)c(C)c3)C2=O)cc([N+](=O)[O-])c1O,inconclusive: 11%
7,Cc1[nH]c2ccc(C(=O)N3CCCN(C)C4(CCN(C)CC4)C3)cc2c1C,inconclusive: 10%
8,CC(C)N(Cc1nccn1C)C(=O)CC1C(=O)NCCN1Cc1cccc(C(F)(F)F)c1 (configuration not stated),inconclusive: 15%
9,CC(C)c1ccc(NC(=O)c2ccc3c(c2)N(C)C(=O)C2CCCCN32)cc1 (configuration not stated),inconclusive: 17%
10,Cc1c(C(=O)Nc2ccc(-c3nc4ncccc4o3)cc2)cccc1[N+](=O)[O-],inconclusive: 26%
11,O=C(O)[C@H]1C[C@@H](C(=O)NCc2ccncc2)CN(C(=O)CCC2CCCC2)C1,inconclusive: 14%
12,CC[C@H]1CN(S(=O)(=O)c2ccc(OC)cc2)CC[C@H]1CC(=O)Nc1nccs1,inconclusive: 10%
13,O=C1CN(c2cc(Cl)cc(Cl)c2)S(=O)(=O)c2ccccc2N1,inactive
14,CS(=O)(=O)N1CCN(c2ccc([N+](=O)[O-])c(NCCN3CCOCC3)c2)CC1,inactive
15,COc1ccc(OC)c(-c2cc(C(=O)Nc3ccc(F)cc3F)no2)c1,inconclusive: 14%
16,CCCC(=O)N(c1ccc(F)cc1)C1C=CS(=O)(=O)C1 (configuration not stated),inconclusive: 11%
17,COc1ccc(C2SCCN2S(=O)(=O)c2ccc(F)cc2)cc1[N+](=O)[O-] (configuration not stated),inconclusive: 10%
18,COc1cc(O)ccc1-c1nccn1C1CCN(Cc2ccccc2)C1 (configuration not stated),inconclusive: 11%
19,NC(N)=NS(=O)(=O)c1ccc(N=Cc2ccccc2[N+](=O)[O-])cc1,inactive
20,c1ccc(CCC2CCCNC2)cc1 (configuration not stated),inconclusive: 19%
21,COc1ccccc1OCCN1CCN(CCOc2ccccc2OC)CC1,inactive
22,CCSc1oc(-c2cccs2)nc1S(=O)(=O)c1ccc(Br)cc1,inconclusive: 11%
23,CCOc1ccccc1OCCCOc1ccc(C)cc1[N+](=O)[O-],inconclusive: 11%

row,SMILES,inhibition
1,CC1(C)CC(=O)C2=C(C1)Nc1nc(SCc3ccccc3Cl)[nH]c(=O)c1C2c1ccncc1 (configuration not stated),inactive
2,c1ccc(-c2cc3c(ccc4nonc43)nn2)cc1,inconclusive: 18%
3,COc1cc(C(=O)Nc2ccc(S(=O)(=O)Nc3ccc(F)cc3)cc2)cc(OC)c1OC,inconclusive: 15%
4,CC(=O)NC(=O)c1cc2cc(Br)ccc2oc1=Nc1cccc(C(F)(F)F)c1,inconclusive: 16%
5,O=C1CCCC(=O)C1C1c2ccccc2Sc2ccccc21,inconclusive: 17%
6,Cc1nc2nc(SCC(=O)NCCC(C)C)nn2c(C)c1Cc1ccccc1,inconclusive: 11%
7,Oc1ccccc1-c1nc(Cl)c2ccccc2n1,inconclusive: 16%
8,CC(=O)c1cccc(N2CN=c3s/c(=C\c4ccccn4)c(=O)n3C2)c1,inconclusive: 20%
9,COc1ccc(C2N(c3nccs3)C(=O)C3CCCN32)cc1 (configuration not stated),inconclusive: 10%
10,CC(C)C(O)(C#CC(O)(C(C)C)C(C)C)C(C)C,inactive
11,COc1cccc(CCNC2CCN(c3ccc(NC(=O)c4ccc(C)cc4C)cc3)CC2)c1,inactive
12,Cc1ccc(C(=O)N2CCC(C(=O)N3CCN(c4ccccc4F)CC3)CC2)cc1,inconclusive: 13%
13,O=[N+]([O-])c1cccc(-c2noc([C@@H]3C[C@@H](O)CN3Cc3ccc(C(F)(F)F)cc3)n2)c1,inactive
14,Cc1c(C(=O)N(C)C2CCCCC2)sc2nc(-c3ccccc3)cn12,inconclusive: 17%
15,Cc1c(C(=O)N2C[C@@H]3CC[C@H]2C3)sc2ncnc(NCc3ccc4c(c3)OCO4)c12,inconclusive: 11%
16,O=C1c2cccnc2CN1C1COC2(CCCC2)C1 (configuration not stated),inconclusive: 11%
17,O=C(c1cnc(-c2ccccc2)[nH]1)N1[C@H]2CCNC[C@@H]1CC2,inconclusive: 14%
18,Cc1cccn2c(=O)c3cc(C(=O)Nc4cc(C(F)(F)F)ccc4Cl)sc3nc12,inconclusive: 20%
19,O=C(NCc1ccc(F)cc1)c1cc(-c2ccc(Br)cc2)on1,inconclusive: 10%
20,O=C(O)CCC(=O)Nc1ccc(Oc2ccc(Cl)cc2Cl)cc1,inactive
21,O=C(c1ccc2c(c1)N(Cc1c(F)cccc1Cl)C(=O)CS2)N1CCC2(CC1)OCCO2,inactive
22,COc1ccc(S(=O)(=O)Nc2c(C)n(C)n(-c3ccccc3)c2=O)cc1[N+](=O)[O-],inactive
23,CCOc1cccc(C2C(C(=O)OCCOC)=C(C)NC3=C2C(=O)C(C(=O)OC)C(C)C3)c1 (configuration not stated),inactive

# 5 consecutive entries from above, for reference:
row,SMILES,inhibition
13,O=C1CN(c2cc(Cl)cc(Cl)c2)S(=O)(=O)c2ccccc2N1,inactive
14,CS(=O)(=O)N1CCN(c2ccc([N+](=O)[O-])c(NCCN3CCOCC3)c2)CC1,inactive
15,COc1ccc(OC)c(-c2cc(C(=O)Nc3ccc(F)cc3F)no2)c1,inconclusive: 14%
16,CCCC(=O)N(c1ccc(F)cc1)C1C=CS(=O)(=O)C1 (configuration not stated),inconclusive: 11%
17,COc1ccc(C2SCCN2S(=O)(=O)c2ccc(F)cc2)cc1[N+](=O)[O-] (configuration not stated),inconclusive: 10%

# Following part

row,SMILES,inhibition
1,O=C(N[C@H]1CCCCNC1=O)c1ccc(N2CCC(NCCc3cccs3)CC2)cc1,inconclusive: 12%
2,COc1ccccc1CNC(=O)c1cccc(F)c1,inactive
3,COc1ccc(OCc2nc(C#N)c(N3CCC(C(N)=O)CC3)o2)cc1,inactive
4,CSc1ccccc1NC(=O)CCC(=O)N1CCC[C@H]1CO,inconclusive: 12%
5,COC(=O)[C@H](NC(=O)C1=C[C@@H](NC(=O)Nc2ccc(C)cc2)[C@@H](O)[C@H](O)C1)C(C)C,inconclusive: 19%
6,N#CC1=C(N)Oc2n[nH]c(-c3ccccc3)c2C1c1ccc(OC(=O)c2ccco2)cc1 (configuration not stated),inactive
7,CC(C)(C)NSc1nc2ccccc2s1,inactive
8,Cc1c(CC(Cl)(Cl)Cl)c2c(n1O)CC(C)(C)CC2=O,inactive
9,Cc1cc(C)c(NC(=O)CS(=O)(=O)c2cccc3nsnc23)c(C)c1,inactive
10,CC(C)N(C(=O)c1cccs1)C(C)C,inactive
11,O=C(NCc1cccnc1)C1CCCN(C2CCN(c3cnccn3)CC2)C1 (configuration not stated),inconclusive: 17%
12,CCOc1ccc(NC(=O)C2CC(=O)N(C3CCCCC3)C2)cc1 (configuration not stated),inactive
13,CC1=C[C@@H](CNC(=O)COc2ccccc2)[C@H](C(C)C)C[C@H]1CC(=O)N1CCN(c2ccccn2)CC1,inconclusive: 11%
14,COc1ccc(C2C(C(=O)OC3CCCCC3)=C(C)Nc3ncnn32)c(OC)c1 (configuration not stated),inactive
15,CCCCNc1nc(Nc2ccc(Cl)cc2)nc(N2CCOCC2)n1,inactive
16,COc1ccc2c(c1)CCc1c(C(=O)Nc3ccc(Br)cc3)noc1-2,inconclusive: 13%
17,CCc1c(C)[nH]c2c1C(=O)C(CN1CCOCC1)CC2 (configuration not stated),inconclusive: 13%
18,CSc1nc2ccc3nc(NC(C)=O)sc3c2s1,inactive
19,CCS(=O)(=O)N1CCN(C(=O)Cc2ccccc2)CC1,inactive
20,O=C(Nc1ccc(F)cc1)Nc1ccccc1I,inactive
21,COc1ccc2ccccc2c1CCNC(C)CC(F)(F)F (configuration not stated),inactive
22,CCc1nc2sc3c(c2c2nnc(C)n12)CCC3,inactive
23,NC(=O)[C@@H]1CCCN1C(=O)c1cc2n(n1)CCCN(Cc1ccccc1)C2,inconclusive: 10%

row,SMILES,inhibition
1,CCN(CC)CC[C@H]1CN(C(=O)Cc2cccs2)CC[C@H]1CC(=O)O,inconclusive: 14%
2,O=C(/C=C(/c1ccccc1)N1CCCCC1)c1ccc([N+](=O)[O-])cc1,active: 38%
3,CC(C)(C)c1ccnc(N[C@H]2CO[C@H]3[C@@H]2OC[C@@H]3NS(=O)(=O)Cc2ccccc2)n1,inconclusive: 12%
4,CC(=O)OC/C(=C/C(=O)O)CC[C@@H]1C(CO)=CC[C@@H]2C(C)(C)CCC[C@@]12C,inconclusive: 25%
5,COc1cccc(C2C(C(=O)OC3CCCCC3)=C(C)Nc3nnnn32)c1OC (configuration not stated),inactive
6,COc1ccc(C(=O)N2C(C)CCCC2C)cc1OC (configuration not stated),inconclusive: 10%
7,NC(=O)c1cccc(CC2CCN(C(=O)c3cnn4cccnc34)C2)c1 (configuration not stated),inconclusive: 11%
8,Cc1ccc(-c2ccnc(N3CCc4c(c(CO)nn4C)C3)n2)c(C)n1,inconclusive: 18%
9,COc1ccc(NC(=O)CSc2nc3c(c(=O)n2-c2ccc(Cl)cc2)SCC3)cc1,inactive
10,COc1ccc(NC(=O)CN2C(=O)C3CCCCN3c3ccc(C(=O)N4CCCC4)cc32)cc1 (configuration not stated),inactive
11,CC(C)c1nc(C(C)c2n[nH]c(=O)c3ccccc23)n(-c2ccccn2)n1 (configuration not stated),inactive
12,Cc1ccc(NC(=O)c2ccc(Br)o2)cc1[N+](=O)[O-],inconclusive: 14%
13,COc1ccc(Cc2cnc(NC(=O)c3ccc(N4CCOCC4)c([N+](=O)[O-])c3)s2)cc1,inconclusive: 19%
14,COc1ccc(C2C(=C(O)c3ccc([N+](=O)[O-])cc3)C(=O)C(=O)N2CCO)cc1OC (configuration not stated),inconclusive: 13%
15,Cc1c(C)n(CC(O)CNc2ccccc2)c2ccccc12 (configuration not stated),inconclusive: 16%
16,COc1ccc(OCc2cc(C(=O)N3CC4C[C@@H]5CC3C[C@H](C4)C5)no2)c(Cl)c1,inconclusive: 15%
17,Cc1c(C(=O)N2CCN(C3CCCCC3)CC2)cnn1-c1nccc(-c2ccccc2F)n1,inactive
18,COC(=O)c1c(NC(=O)c2cc([N+](=O)[O-])nn2Cc2ccccc2)sc(C)c1C,inconclusive: 11%
19,Cc1nc(CCC(=O)N2CCCC3(C=Cc4ccccc4O3)CC2)n[nH]1 (configuration not stated),inactive
20,COc1ccc(Nc2cc(C)nc(Nc3ccc(NC(=O)c4ccc(C(C)(C)C)cc4)cc3)n2)cc1,inconclusive: 20%
21,CC(C(=O)Nc1sc2c(c1C#N)CCCCC2)N1C(=O)c2ccccc2C1=O (configuration not stated),inconclusive: 11%
22,O=C(c1cscn1)N1CCC(n2cc(-c3ccc(F)cc3)nn2)CC1,inconclusive: 13%
23,Cc1cccc(NC(=O)C(=O)NCc2ccncc2)c1C,inactive
